Values quoted from earlier work, collected in patent US11661409B1, “Acid addition salts, compositions, and methods of treating” (Pioneura Corporation, priority 2022, dated 2023).
At least one structure is not confirmed: it was looked up by name or label, or the drawing left a doubt.

What was measured:
autophagy = conditions: in vitro and in vivo models; cited from earlier work
microglial cells [1] = conditions: cited from earlier work
microglial cells [2] = conditions: in vitro; cited from earlier work
wild-type neutrophils = conditions: in vitro; cited from earlier work
neutrophils = conditions: wild-type mice; cited from earlier work
hepatocyte = conditions: murine model of NASH; cited from earlier work

Which results are given for `CN1CCN(Cc2ccc(-c3cnc4[nH]cc(-c5ccc6[nH]ccc6c5)c4c3)cc2)CC1` [Compound 1, 3-(1H-indol-5-yl)-5-[4-[(4-methyl-1-piperazinyl)methyl]phenyl]-1H-pyrrolo[2,3-b]pyridine]?
autophagy induction (autophagy): induces autophagy; lipopolysaccharide-induced TNFα release (microglial cells [1]): inhibits lipopolysaccharide-induced tumor necrosis factor alpha (TNFα) release; destruction and phagocytosis of cultured neuronal axons by microglial cells (microglial cells [2]): prevents destruction and phagocytosis of cultured neuronal axons; fMLP-induced chemotaxis of wild-type neutrophils (wild-type neutrophils): reduces; recruitment of neutrophils into the peritoneum by fMLP (neutrophils): significantly reduces; effect in NASH model (hepatocyte): protection against lipotoxic hepatocyte apoptosis, with anti-inflammatory and anti-fibrotic properties
